Data as given in PubChem BioAssay AID1053208 (Peter MacCallum Cancer Centre, 2014)

Aim: 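Genes whose silencing cuts survival of bone tumour cells only with doxorubicin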 (primary screen)
System: mouse osteosarcoma cells, early-passage culture from an engineered mouse model of fibroblastic bone tumour
Knock-down reagent: siRNA pool against mouse genes, 40 nM
Timing: about 120 h (48 h before drug, then 72 h with drug)
Challenge: doxorubicin 100 nM for 72 h, roughly 30-40% inhibitory dose
Read-out: 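Viability read as ATP luminescence after 72 h of 100 nM doxorubicin or none, duplicate wells averaged, scaled to non-targeting siRNA, then expressed as robust z-scores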
Scale: viability z-score with doxorubicin: higher = more viable cells under doxorubicin; viability z-score without drug: higher = more viable cells with knock-down alone; z-score of drug to no-drug ratio: higher = less drug sensitisation by knock-down
Hit rule: 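a pool counts as active when its viability z-score with doxorubicin is -2 or below and its z-score without drug lies between -2 and 2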
The whole screen tested about 17,000 reagents; below is a random part of them. Over the whole deposit, 788 (4.7%) got an active call. 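Calls rest on z-score classes alone; an extra cut-off of viability at most 70% of control was not applied to them.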 Unmarked entries are inactive. Further read-outs or replicates are left out here.

no.	Target gene	combined z-score class	viability z-score with doxorubicin	viability z-score without drug	z-score of drug to no-drug ratio
1	Dab2ip	no change with or without drug	-1.91	-0.84	-1.35
2	Arhgdia	low cell count with doxorubicin only (active)	-2.02	-0.51	-1.69
3	Garin2	no change with or without drug	-0.67	0.17	-0.67
4	Ncmap	no change with or without drug	0	-0.17	0.22
5	Ms4a1	no change with or without drug	0.22	-1.85	1.8
6	Adgb	no change with or without drug	0.45	0.67	0.11
7	Ankmy1	no change with or without drug	-0.22	1.18	-0.9
8	Slx1b	no change with or without drug	-0.22	1.01	-0.79
9	Ldlrad4	no change with or without drug	-0.11	1.52	-1.01
10	Igbp1b	no change with or without drug	-0.9	0.84	-1.35
11	Nap1l4	no change with or without drug	-1.57	-0.84	-1.01
12	Nfatc1	no change with or without drug	1.69	1.52	0.79
13	Foxk2	no change with or without drug	-0.45	0	-0.34
14	Sparcl1	no change with or without drug	-0.45	-0.51	0
15	Sema4g	no change with or without drug	0	-1.01	0.9
16	Tcim	no change with or without drug	0.11	-0.67	0.67
17	Zbtb3	high cell count without drug only	0.9	2.19	-0.45
18	Slc39a10	no change with or without drug	-0.45	0	-0.34
19	Spats2l	no change with or without drug	-0.45	-0.84	0.22
20	Ang4	no change with or without drug	-1.12	-0.67	-0.67
21	Or5an9	no change with or without drug	-1.12	0.17	-1.12
22	Ctsm	no change with or without drug	1.57	-0.34	2.02
23	Vmn1r51	no change with or without drug	-0.45	-0.17	-0.22
24	Map1b	no change with or without drug	1.35	0.34	1.24
25	Basp1	high cell count with doxorubicin only	2.36	-0.17	2.7
26	Atp5pb	no change with or without drug	-1.35	-1.18	-0.56
27	Rph3al	low cell count with doxorubicin only (active)	-3.82	0.34	-4.05
28	Rhbdd3	no change with or without drug	0.45	1.01	-0.11
29	Slx9	no change with or without drug	-1.35	-0.17	-1.24
30	Cenatac	low cell count with doxorubicin only (active)	-2.02	-0.17	-1.91
31	Spon2	no change with or without drug	-0.11	-0.51	0.34
32	Lrrc20	low cell count with doxorubicin only (active)	-2.59	-1.85	-1.46
33	Bcl6b	no change with or without drug	0	-0.17	0.22
34	Tubd1	no change with or without drug	1.8	0.51	1.57
35	Or8h7	no change with or without drug	-0.67	-0.84	0
36	Gch1	no change with or without drug	0	0.17	0
37	Fnbp4	no change with or without drug	-0.45	-0.51	0
38	Zfp462	no change with or without drug	-0.45	1.18	-1.12
39	Lad1	no change with or without drug	-0.67	-0.17	-0.45
40	A930018M24Rik	no change with or without drug	-0.79	0.51	-1.01
41	Tjp2	no change with or without drug	-0.45	0.51	-0.67
42	Pcp2	no change with or without drug	-0.45	0.34	-0.56
43	Flnb	no change with or without drug	-0.79	0.84	-1.24
44	Tspan2	low cell count with doxorubicin only (active)	-2.25	-1.01	-1.69
45	Drosha	no change with or without drug	0.34	1.18	-0.34
46	Hspa14	no change with or without drug	0.79	0	0.9
47	Mettl21a	no change with or without drug	1.46	0.51	1.24
48	Tacc2	no change with or without drug	0.22	-0.17	0.45
49	Ssbp4	no change with or without drug	0.56	0.51	0.34
50	Pramel27	no change with or without drug	-1.91	1.18	-2.59

Part of the list above, set out differently:
{"Target gene":"Lad1","combined z-score class":"no change with or without drug","viability z-score with doxorubicin":-0.67,"viability z-score without drug":-0.17,"z-score of drug to no-drug ratio":-0.45}
{"Target gene":"A930018M24Rik","combined z-score class":"no change with or without drug","viability z-score with doxorubicin":-0.79,"viability z-score without drug":0.51,"z-score of drug to no-drug ratio":-1.01}
{"Target gene":"Tjp2","combined z-score class":"no change with or without drug","viability z-score with doxorubicin":-0.45,"viability z-score without drug":0.51,"z-score of drug to no-drug ratio":-0.67}
{"Target gene":"Pcp2","combined z-score class":"no change with or without drug","viability z-score with doxorubicin":-0.45,"viability z-score without drug":0.34,"z-score of drug to no-drug ratio":-0.56}
{"Target gene":"Flnb","combined z-score class":"no change with or without drug","viability z-score with doxorubicin":-0.79,"viability z-score without drug":0.84,"z-score of drug to no-drug ratio":-1.24}
